Laboratory results from article PMC11197154.
No constants are given. Whether binding was seen depends on the method and setting. In cells and extracts the contact can be indirect. Some results given as binding are weak or reduced against the parent protein; the word gives no strength.

By UniProt entry, the sequences of proteins in these tests, tags left out.
UniProt P46460: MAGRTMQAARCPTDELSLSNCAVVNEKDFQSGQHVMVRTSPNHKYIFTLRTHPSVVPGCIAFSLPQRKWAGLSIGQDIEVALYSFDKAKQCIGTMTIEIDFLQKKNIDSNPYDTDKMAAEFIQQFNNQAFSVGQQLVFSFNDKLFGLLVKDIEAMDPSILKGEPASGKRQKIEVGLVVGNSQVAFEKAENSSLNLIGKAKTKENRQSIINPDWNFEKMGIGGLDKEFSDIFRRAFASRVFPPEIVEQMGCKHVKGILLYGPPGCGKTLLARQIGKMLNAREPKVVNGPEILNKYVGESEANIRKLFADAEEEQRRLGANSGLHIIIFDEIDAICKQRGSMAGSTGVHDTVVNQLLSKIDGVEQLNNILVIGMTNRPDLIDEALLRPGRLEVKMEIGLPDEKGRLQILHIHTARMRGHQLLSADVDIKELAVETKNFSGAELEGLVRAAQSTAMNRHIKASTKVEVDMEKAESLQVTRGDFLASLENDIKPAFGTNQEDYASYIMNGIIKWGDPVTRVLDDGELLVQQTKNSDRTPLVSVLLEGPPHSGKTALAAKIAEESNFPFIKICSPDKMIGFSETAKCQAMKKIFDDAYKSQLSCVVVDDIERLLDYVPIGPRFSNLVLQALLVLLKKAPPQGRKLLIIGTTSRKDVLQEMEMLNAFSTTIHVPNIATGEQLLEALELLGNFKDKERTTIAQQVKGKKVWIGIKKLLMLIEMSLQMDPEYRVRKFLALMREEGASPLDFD

Target: T1, acid-sensing ion channel 1a (ASIC1a) (mouse (endogenous in C57BL/6J brain)) (UniProt Q6NXK8)
T1 sequence: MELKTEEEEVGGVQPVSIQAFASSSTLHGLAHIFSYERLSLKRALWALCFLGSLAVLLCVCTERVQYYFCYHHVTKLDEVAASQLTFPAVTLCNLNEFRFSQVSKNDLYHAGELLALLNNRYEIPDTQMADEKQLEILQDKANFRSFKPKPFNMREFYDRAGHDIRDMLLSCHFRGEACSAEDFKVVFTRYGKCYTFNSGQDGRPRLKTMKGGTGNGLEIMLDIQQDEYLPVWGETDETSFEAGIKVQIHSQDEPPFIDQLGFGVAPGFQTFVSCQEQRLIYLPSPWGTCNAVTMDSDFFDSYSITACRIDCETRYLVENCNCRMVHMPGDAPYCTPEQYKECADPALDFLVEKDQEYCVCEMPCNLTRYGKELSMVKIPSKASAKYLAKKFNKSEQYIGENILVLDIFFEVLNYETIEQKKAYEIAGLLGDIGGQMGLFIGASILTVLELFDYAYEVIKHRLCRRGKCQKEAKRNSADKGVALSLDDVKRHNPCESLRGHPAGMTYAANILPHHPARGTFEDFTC
Assay: co-IP; ASIC1a precipitated from mouse brain lysate (sham-operated tissue or peri-infarct tissue 2 h after tMCAO; also after tMCAO in mice given AAV CasRx-Ripk1-Nsf or CasRx control); 4 ug antibody at 4 C overnight, protein G agarose beads 2 h at 4 C, three washes with lysis buffer; blots for RIPK1 and NSF

binding: binds
Substance: N-ethylmaleimide-sensitive fusion ATPase (NSF) (from UniProt P46460 1-744)
